PubChem BioAssay AID504786, Drosophila RNAi Screening Center | 2011
The screen tested about 21,000 reagents; shown is an unselected part of those that have a named target and a result. 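Primary screen; positive scores mean lost reporter signal, so the sign may be inverted from the usual convention.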 Names joined by + are all predicted targets of the reagent.

Aim: 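Positive regulators of HIF-driven reporter output in Drosophila cells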 (primary screen)
System: Drosophila S2 cells with a stable HIF luciferase reporter
Knock-down reagent: long dsRNA against Drosophila genes, about 0.2 µg dsRNA per well of a 384-well plate
Duration: three days of knock-down, then 20 h of DFO before reading
Conditions: desferrioxamine (DFO) at 100 µM, an iron chelator that mimics hypoxia, for 20 h
Read-out: 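HIF reporter luminescence in cells given 100 µM DFO for 20 h, using the mouse ldh-a hypoxia-response element, scored as per-plate z-scores; higher means greater loss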
Scale: z-score: higher = stronger loss of HIF reporter signal

gene | DRSC id | z-score, replicate 1 | z-score, replicate 2 | z-score, replicate 3 | z-score, replicate 4
CG9119 | DRSC08620 | 7.2 | 6.5 | – | –
Dolk | DRSC07143 | -0.2 | -0.3 | – | –
CG42525 | DRSC08026 | -0.1 | -0.7 | -0.6 | -0.4
pigeon | DRSC03565 | -0.3 | -0.4 | – | –
iotaTry | DRSC07634 | -0.1 | 0.1 | – | –
CG34301 | DRSC12704 | -0.3 | -0.3 | – | –
Ddc | DRSC03314 | -0.3 | -0.5 | – | –
CG32040 | DRSC08981 | -0.3 | -0.1 | – | –
CG10750 | DRSC02105 | -0.3 | -0.5 | – | –
CG4049 | DRSC04443 | 0.3 | 0.2 | – | –
CG8668 | DRSC03101 | -0.2 | -0.2 | – | –
Timp | DRSC17082 | -0.3 | -0.3 | – | –
CG10311 | DRSC14228 | -0.3 | -0.1 | – | –
Cmtr1 | DRSC18400 | -0.2 | 0.3 | – | –
CG34188 | DRSC05549 | -0.2 | -0.3 | – | –
CG3803 | DRSC04420 | -0.2 | -0.1 | – | –
CG42335 | DRSC14597 | -0.2 | 0.1 | – | –
CG42335 | DRSC15892 | -0.1 | -0.2 | – | –
l(3)S110416 (retired record) | DRSC17094 | -0.1 | -0.1 | – | –
CG13361 | DRSC17896 | -0.4 | -0.5 | – | –
CG4911 | DRSC10456 | -0.2 | -0.5 | – | –
CG33120 | DRSC02073 | -0.3 | -0.4 | – | –
Eo | DRSC20187 | -0.2 | -0.9 | – | –
SH3PX1 | DRSC11139 | -0.3 | 0 | – | –
Ir7d | DRSC18010 | -0.1 | 0.1 | – | –
CG42458 | DRSC10335 | -0.4 | 0.4 | – | –
Edc3 | DRSC10620 | -0.4 | -1 | – | –
Clc | DRSC11116 | -0.4 | -0.8 | – | –
inaF-A | DRSC19660 | -0.4 | -0.5 | – | –
CG8565 | DRSC20112 | -0.1 | -0.5 | – | –
CG14113 | DRSC10116 | -0.2 | -0.6 | – | –
CG7546 | DRSC08885 | -0.3 | -0.1 | – | –
CG7546 | DRSC10871 | -0.4 | -0.1 | 0.1 | -0.3
CG17929 | DRSC15291 | -0.2 | 0.1 | – | –
CG3640 | DRSC04399 | -0.3 | -0.6 | – | –
Ntl | DRSC03003 | -1.1 | -0.3 | – | –
HP4 | DRSC10958 | -0.4 | -0.4 | – | –
Acf | DRSC14101 | 0 | 0 | – | –
CG1299 | DRSC08300 | -0.3 | -0.6 | – | –
CG13566 | DRSC04203 | -0.5 | -0.8 | – | –
CG14020 | DRSC02350 | -0.4 | -0.2 | – | –
CG6602 | DRSC10673 | -0.4 | -0.7 | – | –
CG32240 | DRSC08093 | -0.1 | -0.6 | – | –
Nacalpha | DRSC07477 | 0.7 | 0.7 | – | –
IntS8 | DRSC07417 | 0.1 | -0.2 | – | –
Cds | DRSC10938 | -0.2 | 0.1 | – | –
Octbeta3R | DRSC15351 | -0.1 | 0.4 | – | –
Octbeta3R | DRSC16191 | -0.3 | -0.3 | – | –
RpL37A | DRSC02899 | 2.6 | 4.2 | – | –
ICA69 | DRSC11621 | -0.4 | -0.5 | – | –
Ucp4C | DRSC03132 | -0.4 | -0.5 | – | –
TpnC47D | DRSC07564 | -0.3 | -0.1 | – | –
Arr2 | DRSC09670 | -0.4 | -0.2 | – | –
Scr | DRSC12604 | 4.8 | 2 | – | –
csw | DRSC18756 | 0.2 | -0.3 | – | –
CG33964 + CG13175 | DRSC06300 | -0.3 | 0.1 | – | –
CG33964 + CG13175 | DRSC06301 | -0.1 | 0.2 | – | –
CG33964 + CG13175 | DRSC07184 | -0.1 | 0.5 | – | –
CG14074 | DRSC10079 | 0 | -0.5 | – | –
Ns1 | DRSC15529 | 1.3 | 5 | – | –
CG6733 | DRSC16103 | -0.5 | -0.2 | – | –
Prestin | DRSC10507 | -0.5 | -1 | – | –
CG5509 | DRSC15822 | -0.2 | -0.5 | – | –
CG33170 | DRSC11854 | -0.3 | -0.1 | – | –
Karl | DRSC19883 | -0.3 | -0.6 | – | –
CG31848 | DRSC01309 | 0 | -0.1 | – | –
Eglp3 | DRSC04293 | -0.3 | 0 | – | –
Npc2f | DRSC15980 | -0.3 | -0.6 | – | –
CG12133 | DRSC06108 | -0.2 | -0.3 | – | –
ODA-Dnal1 | DRSC07270 | -0.3 | -0.6 | – | –
ave | DRSC05502 | 0.3 | 0.1 | – | –
MstProx | DRSC12458 | 0 | -0.3 | – | –
MstProx | DRSC12601 | -0.4 | -0.3 | – | –
Rnb | DRSC16325 | -0.3 | 0 | – | –
CG32982 | DRSC01059 | 1.1 | 2.9 | – | –
CG32982 | DRSC02677 | -0.3 | -0.3 | – | –
CG32982 | DRSC03268 | -0.4 | 0 | -0.2 | -0.3
CG32982 | DRSC03269 | -0.1 | 0 | – | –
Ldsdh1 | DRSC18219 | -0.3 | 0 | – | –
gpp | DRSC12515 | 0.7 | 0.5 | – | –
gpp | DRSC12516 | 0.1 | -0.2 | – | –
Kdm2 | DRSC14286 | -0.4 | -0.4 | – | –
CG31740 | DRSC01619 | -0.6 | 0.1 | – | –
Alp1 | DRSC11781 | -0.1 | 0.1 | – | –
CG8157 | DRSC07085 | -0.4 | -0.5 | – | –
CG30339 | DRSC05168 | -0.2 | -0.1 | – | –
CG12744 | DRSC06164 | -0.4 | -0.4 | – | –
cdm | DRSC16213 | -0.1 | 0.4 | – | –
CG4666 | DRSC18379 | -0.3 | -0.5 | – | –
CG1946 | DRSC06804 | -0.4 | -0.3 | – | –
osi | DRSC02931 | -0.3 | -0.1 | -0.5 | -0.3
Nhe1 | DRSC00762 | -0.2 | -0.1 | – | –
CR11023 | DRSC00302 | -0.3 | -0.2 | – | –
MED4 | DRSC11014 | 0.4 | 1.9 | – | –
CG12535 | DRSC17838 | -0.2 | 0.3 | – | –
GstT1 | DRSC06243 | -0.4 | -0.6 | – | –
sha | DRSC06331 | -0.3 | -0.6 | – | –
Naa80 | DRSC16429 | -0.6 | 0.2 | – | –
CG14515 | DRSC14867 | -0.3 | 0 | – | –
santa-maria | DRSC00994 | 0.2 | -0.3 | – | –
santa-maria | DRSC02180 | -0.3 | -0.6 | – | –
Cyp6a14 (retired record) | DRSC07376 | -0.3 | -0.6 | – | –
CG11668 | DRSC14341 | -0.5 | -0.4 | – | –
CG5188 | DRSC02826 | -0.1 | -0.2 | – | –
fu | DRSC20333 | 0 | 2.1 | – | –
CG13078 | DRSC02182 | -0.3 | 0 | – | –
